# Construct, isoform or probe ends are uncertain for at least one entry. At least one verdict rests on a figure or table, not on a statement of the authors.
# The chains behind the UniProt entries cited, without tags or fusion partners. Where a name states a change or a piece, a line headed by the entry shows the natural chain unless it says otherwise.
# UniProt Q9UGN5: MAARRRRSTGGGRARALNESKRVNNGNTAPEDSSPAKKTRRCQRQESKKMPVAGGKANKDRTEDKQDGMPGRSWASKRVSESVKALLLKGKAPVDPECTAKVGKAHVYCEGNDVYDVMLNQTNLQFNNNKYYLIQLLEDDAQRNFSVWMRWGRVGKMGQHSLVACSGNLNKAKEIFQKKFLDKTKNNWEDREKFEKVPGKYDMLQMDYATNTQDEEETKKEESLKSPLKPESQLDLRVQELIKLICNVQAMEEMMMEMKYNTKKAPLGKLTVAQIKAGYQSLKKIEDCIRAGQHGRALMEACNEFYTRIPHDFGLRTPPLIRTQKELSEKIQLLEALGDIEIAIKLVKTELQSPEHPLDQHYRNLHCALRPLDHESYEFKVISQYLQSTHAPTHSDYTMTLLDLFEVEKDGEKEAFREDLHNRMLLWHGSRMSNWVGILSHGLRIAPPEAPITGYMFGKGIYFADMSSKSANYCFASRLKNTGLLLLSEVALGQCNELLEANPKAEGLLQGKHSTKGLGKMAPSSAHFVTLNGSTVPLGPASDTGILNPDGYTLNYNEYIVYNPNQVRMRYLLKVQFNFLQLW
# Legend:
# hPARP2 (Homo sapiens) = hPARP2 (Homo sapiens) (UniProt Q9UGN5); test: EMSA; conditions: robust binding to 5'P blunt end; 5'-phosphate; EMSA: 50 mM HEPES pH 8, 100 mM NaCl, 10% glycerol, 10 mM DTT, 45 min at 4 °C, 7% native PAGE 0.5x TBE; recombinant protein; protein details: His; folded or branched DNA
# [1] = tested on: LoPARP2 (Lathyrus oleraceus 'Blauwschokker'); test: EMSA; conditions: robust binding to 5'P blunt end; 5'-phosphate; EMSA: 50 mM HEPES pH 8, 100 mM NaCl, 10% glycerol, 10 mM DTT, 45 min at 4 °C, 7% native PAGE 0.5x TBE; recombinant protein; protein details: His; folded or branched DNA
sequence,measurement,setting,value
GGAAGTTCTTTTGAACTTCC [DNA-5 (5'P blunt)],binding result,hPARP2 (Homo sapiens),binds
same,binding result,[1],binds

# From article PMC13507078
